Assay results reported in the supplement of paper PMC12067093, “Discovery and optimisation of a covalent ligand for TRIM25 and its application to targeted protein ubiquitination” (Chemical Science, 2025).
This is one part of the list.

The chains behind the UniProt entries cited, without tags or fusion partners. Where a name states a change or a piece, a line headed by the entry shows the natural chain unless it says otherwise.
UniProt P49754: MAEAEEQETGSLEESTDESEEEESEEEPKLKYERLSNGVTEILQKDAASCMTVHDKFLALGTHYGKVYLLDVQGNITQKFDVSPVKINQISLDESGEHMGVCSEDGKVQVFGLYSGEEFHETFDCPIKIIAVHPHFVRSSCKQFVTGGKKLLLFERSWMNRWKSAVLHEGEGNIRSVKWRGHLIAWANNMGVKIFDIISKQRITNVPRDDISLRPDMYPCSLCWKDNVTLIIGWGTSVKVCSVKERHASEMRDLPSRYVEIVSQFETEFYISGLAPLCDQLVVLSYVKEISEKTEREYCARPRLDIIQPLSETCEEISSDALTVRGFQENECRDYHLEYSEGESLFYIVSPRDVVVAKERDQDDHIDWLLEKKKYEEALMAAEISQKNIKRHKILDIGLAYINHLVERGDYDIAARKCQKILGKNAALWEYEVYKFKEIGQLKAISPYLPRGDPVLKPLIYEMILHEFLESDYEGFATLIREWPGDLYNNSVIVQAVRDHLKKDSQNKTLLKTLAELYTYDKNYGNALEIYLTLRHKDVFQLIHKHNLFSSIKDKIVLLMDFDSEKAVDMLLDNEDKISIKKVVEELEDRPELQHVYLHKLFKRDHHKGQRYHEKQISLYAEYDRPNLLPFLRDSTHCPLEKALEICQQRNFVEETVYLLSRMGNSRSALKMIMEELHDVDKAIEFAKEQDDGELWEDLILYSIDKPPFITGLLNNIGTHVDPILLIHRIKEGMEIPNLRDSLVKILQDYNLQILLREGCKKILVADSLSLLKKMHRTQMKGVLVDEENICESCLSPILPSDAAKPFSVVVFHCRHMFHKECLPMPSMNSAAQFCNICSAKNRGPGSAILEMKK
UniProt Q96JC1: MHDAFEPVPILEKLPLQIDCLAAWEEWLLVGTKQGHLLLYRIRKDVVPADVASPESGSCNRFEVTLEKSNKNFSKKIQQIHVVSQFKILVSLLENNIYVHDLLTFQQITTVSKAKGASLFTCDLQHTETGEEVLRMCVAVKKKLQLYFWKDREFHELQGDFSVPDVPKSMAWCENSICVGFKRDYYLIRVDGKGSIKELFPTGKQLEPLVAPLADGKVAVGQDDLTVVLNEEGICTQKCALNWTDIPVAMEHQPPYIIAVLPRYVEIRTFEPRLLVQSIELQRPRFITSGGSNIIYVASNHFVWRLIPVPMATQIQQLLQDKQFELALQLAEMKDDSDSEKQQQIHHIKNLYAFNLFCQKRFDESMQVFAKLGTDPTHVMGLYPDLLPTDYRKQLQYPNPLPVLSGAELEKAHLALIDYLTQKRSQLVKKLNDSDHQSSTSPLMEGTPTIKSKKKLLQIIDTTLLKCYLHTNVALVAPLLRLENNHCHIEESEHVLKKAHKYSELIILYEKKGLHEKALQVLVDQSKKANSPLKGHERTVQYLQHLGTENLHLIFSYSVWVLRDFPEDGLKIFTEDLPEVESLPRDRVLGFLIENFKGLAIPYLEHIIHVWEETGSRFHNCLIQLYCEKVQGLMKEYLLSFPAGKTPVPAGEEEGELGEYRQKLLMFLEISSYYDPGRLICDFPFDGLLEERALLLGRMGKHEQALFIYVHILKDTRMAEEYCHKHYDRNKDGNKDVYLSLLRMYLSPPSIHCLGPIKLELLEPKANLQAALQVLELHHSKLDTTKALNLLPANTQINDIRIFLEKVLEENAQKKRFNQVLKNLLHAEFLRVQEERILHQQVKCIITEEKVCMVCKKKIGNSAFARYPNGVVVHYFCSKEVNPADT
UniProt Q8IV63: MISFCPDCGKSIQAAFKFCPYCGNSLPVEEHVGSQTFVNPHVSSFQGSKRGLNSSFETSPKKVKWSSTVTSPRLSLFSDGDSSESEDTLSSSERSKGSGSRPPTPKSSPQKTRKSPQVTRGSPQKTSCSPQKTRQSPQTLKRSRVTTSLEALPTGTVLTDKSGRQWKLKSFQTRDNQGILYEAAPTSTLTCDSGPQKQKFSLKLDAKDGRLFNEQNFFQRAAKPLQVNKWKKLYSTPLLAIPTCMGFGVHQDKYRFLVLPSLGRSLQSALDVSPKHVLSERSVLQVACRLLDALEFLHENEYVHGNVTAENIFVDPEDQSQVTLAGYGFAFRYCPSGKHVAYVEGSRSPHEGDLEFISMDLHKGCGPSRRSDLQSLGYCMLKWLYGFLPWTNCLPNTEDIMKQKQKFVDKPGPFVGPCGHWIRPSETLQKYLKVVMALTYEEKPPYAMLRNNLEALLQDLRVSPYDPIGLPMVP
UniProt P55072, whole entry, looked up: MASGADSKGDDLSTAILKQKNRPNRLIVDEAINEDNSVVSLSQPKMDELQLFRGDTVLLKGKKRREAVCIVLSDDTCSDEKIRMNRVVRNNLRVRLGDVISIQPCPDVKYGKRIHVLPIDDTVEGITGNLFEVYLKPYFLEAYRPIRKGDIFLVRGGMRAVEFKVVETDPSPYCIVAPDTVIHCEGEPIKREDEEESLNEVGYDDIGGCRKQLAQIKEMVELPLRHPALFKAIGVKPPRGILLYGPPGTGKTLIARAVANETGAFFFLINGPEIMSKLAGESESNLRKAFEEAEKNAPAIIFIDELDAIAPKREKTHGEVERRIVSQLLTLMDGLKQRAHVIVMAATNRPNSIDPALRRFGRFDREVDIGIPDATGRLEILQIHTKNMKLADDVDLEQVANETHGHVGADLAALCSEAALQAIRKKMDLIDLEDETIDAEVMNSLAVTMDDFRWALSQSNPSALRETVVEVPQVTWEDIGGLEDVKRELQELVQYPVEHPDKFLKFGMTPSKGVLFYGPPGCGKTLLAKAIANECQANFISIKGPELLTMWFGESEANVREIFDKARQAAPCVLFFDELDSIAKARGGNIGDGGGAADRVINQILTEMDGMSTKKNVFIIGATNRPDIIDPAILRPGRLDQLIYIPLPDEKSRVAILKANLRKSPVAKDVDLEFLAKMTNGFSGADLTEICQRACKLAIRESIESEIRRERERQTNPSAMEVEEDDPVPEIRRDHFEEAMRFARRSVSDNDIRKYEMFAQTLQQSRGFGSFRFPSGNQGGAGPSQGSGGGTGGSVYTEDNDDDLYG
UniProt Q7Z5K2: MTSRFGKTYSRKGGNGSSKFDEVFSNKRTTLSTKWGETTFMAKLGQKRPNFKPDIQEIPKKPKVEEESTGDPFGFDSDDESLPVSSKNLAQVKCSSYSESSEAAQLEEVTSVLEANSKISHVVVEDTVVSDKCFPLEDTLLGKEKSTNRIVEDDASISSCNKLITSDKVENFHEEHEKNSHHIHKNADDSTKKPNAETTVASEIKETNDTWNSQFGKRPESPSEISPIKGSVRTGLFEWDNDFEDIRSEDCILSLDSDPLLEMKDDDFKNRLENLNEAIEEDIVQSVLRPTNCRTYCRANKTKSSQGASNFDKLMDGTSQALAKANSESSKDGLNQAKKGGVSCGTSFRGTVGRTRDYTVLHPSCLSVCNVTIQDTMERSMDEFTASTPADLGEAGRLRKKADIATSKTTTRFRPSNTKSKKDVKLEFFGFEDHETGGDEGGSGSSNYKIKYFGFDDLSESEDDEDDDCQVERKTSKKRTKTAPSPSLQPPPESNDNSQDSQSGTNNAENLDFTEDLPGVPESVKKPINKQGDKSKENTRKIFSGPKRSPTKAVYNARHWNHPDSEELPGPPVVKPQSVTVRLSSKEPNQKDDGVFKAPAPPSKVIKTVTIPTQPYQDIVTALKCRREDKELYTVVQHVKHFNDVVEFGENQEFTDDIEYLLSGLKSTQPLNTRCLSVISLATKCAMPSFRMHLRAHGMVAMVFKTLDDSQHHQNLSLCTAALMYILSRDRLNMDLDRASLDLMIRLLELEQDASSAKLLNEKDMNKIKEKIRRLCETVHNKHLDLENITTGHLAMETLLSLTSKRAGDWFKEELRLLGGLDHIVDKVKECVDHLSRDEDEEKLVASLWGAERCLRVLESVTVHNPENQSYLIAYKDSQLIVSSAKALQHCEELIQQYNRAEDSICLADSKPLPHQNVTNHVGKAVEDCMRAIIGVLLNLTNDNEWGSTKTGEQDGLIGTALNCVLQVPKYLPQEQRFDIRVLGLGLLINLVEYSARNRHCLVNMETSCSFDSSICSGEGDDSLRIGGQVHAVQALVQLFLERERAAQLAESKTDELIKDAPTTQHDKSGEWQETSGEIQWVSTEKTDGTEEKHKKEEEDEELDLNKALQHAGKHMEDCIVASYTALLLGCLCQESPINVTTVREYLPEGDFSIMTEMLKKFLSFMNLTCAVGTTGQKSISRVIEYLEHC
UniProt P40818: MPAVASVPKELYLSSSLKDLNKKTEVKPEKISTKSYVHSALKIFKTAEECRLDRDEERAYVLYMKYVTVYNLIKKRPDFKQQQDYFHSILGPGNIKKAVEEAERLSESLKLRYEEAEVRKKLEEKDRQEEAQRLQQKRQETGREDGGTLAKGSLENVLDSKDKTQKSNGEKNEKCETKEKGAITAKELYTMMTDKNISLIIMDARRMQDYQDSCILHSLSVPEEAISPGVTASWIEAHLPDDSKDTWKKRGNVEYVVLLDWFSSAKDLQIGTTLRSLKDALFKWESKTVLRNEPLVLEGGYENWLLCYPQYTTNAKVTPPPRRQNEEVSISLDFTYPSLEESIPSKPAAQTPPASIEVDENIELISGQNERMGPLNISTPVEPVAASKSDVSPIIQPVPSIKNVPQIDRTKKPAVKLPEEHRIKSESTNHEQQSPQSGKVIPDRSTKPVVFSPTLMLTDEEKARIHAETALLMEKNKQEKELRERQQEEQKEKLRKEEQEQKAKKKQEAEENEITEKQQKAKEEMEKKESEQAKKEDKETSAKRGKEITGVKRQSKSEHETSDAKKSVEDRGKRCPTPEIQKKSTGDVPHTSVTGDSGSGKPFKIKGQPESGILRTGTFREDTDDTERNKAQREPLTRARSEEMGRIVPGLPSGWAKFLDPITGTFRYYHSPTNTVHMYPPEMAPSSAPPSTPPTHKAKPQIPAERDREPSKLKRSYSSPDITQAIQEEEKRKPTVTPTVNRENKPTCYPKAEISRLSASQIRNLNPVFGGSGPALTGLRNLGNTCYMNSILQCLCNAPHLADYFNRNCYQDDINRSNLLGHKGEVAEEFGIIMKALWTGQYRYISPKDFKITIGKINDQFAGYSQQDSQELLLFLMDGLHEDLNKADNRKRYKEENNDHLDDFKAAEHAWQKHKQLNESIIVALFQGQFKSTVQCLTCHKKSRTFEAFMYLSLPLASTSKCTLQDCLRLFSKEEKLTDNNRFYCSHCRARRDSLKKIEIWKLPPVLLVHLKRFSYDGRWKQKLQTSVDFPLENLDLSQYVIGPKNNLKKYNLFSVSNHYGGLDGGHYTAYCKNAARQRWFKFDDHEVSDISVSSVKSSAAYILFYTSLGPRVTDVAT
UniProt P26640: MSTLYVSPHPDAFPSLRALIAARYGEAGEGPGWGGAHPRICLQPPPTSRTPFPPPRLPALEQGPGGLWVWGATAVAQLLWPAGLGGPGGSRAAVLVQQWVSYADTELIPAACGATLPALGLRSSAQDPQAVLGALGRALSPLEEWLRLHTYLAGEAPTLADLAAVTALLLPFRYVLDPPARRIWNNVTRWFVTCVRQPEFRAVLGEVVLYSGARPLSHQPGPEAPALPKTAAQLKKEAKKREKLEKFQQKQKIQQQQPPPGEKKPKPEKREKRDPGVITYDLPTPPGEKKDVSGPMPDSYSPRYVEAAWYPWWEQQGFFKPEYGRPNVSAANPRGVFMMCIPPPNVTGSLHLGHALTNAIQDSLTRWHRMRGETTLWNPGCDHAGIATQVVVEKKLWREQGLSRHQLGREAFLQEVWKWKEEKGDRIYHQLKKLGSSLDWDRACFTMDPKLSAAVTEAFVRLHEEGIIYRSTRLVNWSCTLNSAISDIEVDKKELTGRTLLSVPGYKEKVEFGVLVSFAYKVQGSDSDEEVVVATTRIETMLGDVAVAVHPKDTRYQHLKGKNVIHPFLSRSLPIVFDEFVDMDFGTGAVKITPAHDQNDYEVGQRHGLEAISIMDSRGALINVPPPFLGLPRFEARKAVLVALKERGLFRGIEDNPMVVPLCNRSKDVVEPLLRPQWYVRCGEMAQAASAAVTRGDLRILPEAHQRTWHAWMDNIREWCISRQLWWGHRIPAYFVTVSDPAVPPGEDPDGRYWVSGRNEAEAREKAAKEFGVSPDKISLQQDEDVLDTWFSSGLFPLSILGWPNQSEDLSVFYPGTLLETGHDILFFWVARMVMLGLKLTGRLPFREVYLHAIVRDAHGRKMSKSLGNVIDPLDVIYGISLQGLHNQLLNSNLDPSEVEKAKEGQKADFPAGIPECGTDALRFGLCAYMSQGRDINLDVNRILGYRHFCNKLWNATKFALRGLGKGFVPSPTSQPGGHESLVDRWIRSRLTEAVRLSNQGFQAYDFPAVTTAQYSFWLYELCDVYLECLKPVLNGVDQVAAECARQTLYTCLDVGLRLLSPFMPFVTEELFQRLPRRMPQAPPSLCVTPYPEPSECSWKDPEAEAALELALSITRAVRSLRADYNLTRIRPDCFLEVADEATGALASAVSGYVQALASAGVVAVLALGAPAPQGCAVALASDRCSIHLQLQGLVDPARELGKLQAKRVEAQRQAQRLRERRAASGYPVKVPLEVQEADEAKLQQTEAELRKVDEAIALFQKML

Compound: CC1Cc2ccccc2N1C(=O)C1CCCN(C1)C(=O)CCl (mixture of isomers) [TRIM25 ligand 11 (diastereomer mixture)]
Experiment: probe-labelled cysteine peptide fold change vs DMSO (competition) (log2 fold change); higher = less target engagement (more negative = stronger competition)
Conditions: THP-1, incubation time: 4 h
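Note: competitive chemoproteomic profiling in live THP-1 cells with an iodoacetamide desthiobiotin (IA-DTB) probe, comparing probe-labelled peptide intensities in compound-treated cells against DMSO-treated controls.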

Target	probe-labelled cysteine peptide fold change (10 µM)	probe-labelled cysteine peptide fold change (50 µM)
USP9Y_O00507_1729_ICQGCPHRYECEESFTTLNVDIR (UniProt O00507)	-0.0867	-0.207
VPS41_P49754_102_INQISLDESGEHMGVCSEDGK (UniProt P49754)	0.173	-0.00626
VPS39_Q96JC1_681_LICDFPFDGLLEER (UniProt Q96JC1)	0.145	0.086
VRK3_Q8IV63_128_TSCSPQK (UniProt Q8IV63)	0.0233	-0.142
VPS28_Q9UK41_96_QVQGSEISSIDEFCR (UniProt Q9UK41)	-0.0943	0.105
VCP_P55072_174_VVETDPSPYCIVAPDTVIHCEGEPIKR (UniProt P55072)	0.0996	-0.0884
VAV1_P15498_31_VTWDGAQVCELAQALR (UniProt P15498)	0.0648	0.411
VAV3_Q9UKW4_187_CPENDIR (UniProt Q9UKW4)	0.0572	-0.0205
WAPL_Q7Z5K2_675_CLSVISLATK (UniProt Q7Z5K2)	0.000138	0.125
WAPL_Q7Z5K2_891_ALQHCEELIQQYNR (UniProt Q7Z5K2)	0.739	0.496
USP8_P40818_809_NCYQDDINR (UniProt P40818)	0.0364	-0.0104
VAPA_Q9P0L0_128_CVFEMPNENDKLNDMEPSK (UniProt Q9P0L0)	-0.158	-0.495
USP9X_Q93008_540_ILDYSCSQDRDTQK (UniProt Q93008)	0.0146	-0.0556
VPS39_Q96JC1_467_CYLHTNVALVAPLLR (UniProt Q96JC1)	-0.0605	0.142
VPS8_Q8N3P4_925_IIDCYLRDPLREEEVFNYIHNILSIPGHSAEEK (UniProt Q8N3P4)	0.0571	0.0996
UTP23_Q9BRU9_35_NNFGVREPYQILLDGTFCQAALR (UniProt Q9BRU9)	-0.28	-0.275
VARS_P26640_663_GIEDNPMVVPLCNR (UniProt P26640)	-0.0683	-0.176
VCPIP1_Q96JH7_472_CLLCGALSELHVPPEWLAPGGK (UniProt Q96JH7)	0.159	0.00847
VRK1_Q99986_220_RCHDGTIEFTSIDAHNGVAPSR (UniProt Q99986)	0.0479	-0.0945
VPS18_Q9P253_741_QCADLPEEDEELR (UniProt Q9P253)	0.178	0.183
VIRMA_Q69YN4_557_CHFYEVLSEIKR (UniProt Q69YN4)	0.174	0.171

Target	probe-labelled cysteine peptide fold change (10 µM)	probe-labelled cysteine peptide fold change (50 µM)
VPS8_Q8N3P4_512_QDCLTEALALAWSFHEGK (UniProt Q8N3P4)	0.0893	0.175
VPS39_Q96JC1_358_NLYAFNLFCQK (UniProt Q96JC1)	0.106	0.224
VARS_P26640_917_ADFPAGIPECGTDALR (UniProt P26640)	-0.0936	0.06
VPS41_P49754_332_GFQENECR (UniProt P49754)	0.135	0.0295
USP7_Q93009_925_DLLEECK (UniProt Q93009)	0.197	0.157
VPS13C_Q709C8_2588_CQLFIQPAGILEHQYK (UniProt Q709C8)	0.0612	0.0461
USP9X_Q93008_471_LAWDFSPEQLDHLFDCFK (UniProt Q93008)	0.345	0.292
VLDLR_P98155_367_ECHINECLVNNGGCSHICK (UniProt P98155)	-0.00363	0.189
UTP4_Q969X6_21_CVAYNNQSNR (UniProt Q969X6)	0.045	0.136
VPS35_Q96QK1_253_QIVLTGILEQVVNCR (UniProt Q96QK1)	-0.0242	-0.131
USP9X_Q93008_2398_CMVALFSNCPVAYQILQGNGDLK (UniProt Q93008)	0.0393	0.12
WAPL_Q7Z5K2_133_CFPLEDTLLGK (UniProt Q7Z5K2)	-0.12	-0.223
VPS26B_Q4G0F5_334_TPSQLSDNNCR (UniProt Q4G0F5)	0.0807	-0.165
VPS53_Q5VIR6_424_CFEPHLYVYIESQDK (UniProt Q5VIR6)	0.082	0.253
VCPIP1_Q96JH7_207+219_SQECLIPVHVDGDGHCLVHAVSR (UniProt Q96JH7)	-0.42	-1.06
VPS16_Q9H269_817_NEAELSLVLSHCTGATDGATADK (UniProt Q9H269)	0.166	0.0291
VCP_P55072_77_EAVCIVLSDDTCSDEK (UniProt P55072)	-0.0814	0.0201
USP8_P40818_50_TAEECR (UniProt P40818)	0.265	0.233
UTRN_P46939_1059_QLDQCSAFVNEIETIESSLK (UniProt P46939)	0.0719	0.12
VCPIP1_Q96JH7_517_NYSFPLNNLVCSYDSVK (UniProt Q96JH7)	-0.0371	-0.113
